# Assay results as given in the supplement of paper PMC3334620.
# The full ranking holds about 33,000 sequences; the median of “E-score (-0.5 to 0.5)” is about -0.016, and the highest 2% start at about 0.3. Some of the results follow.
# Biological target: T1, Yer184c (UniProt P39961)
# T1 sequence: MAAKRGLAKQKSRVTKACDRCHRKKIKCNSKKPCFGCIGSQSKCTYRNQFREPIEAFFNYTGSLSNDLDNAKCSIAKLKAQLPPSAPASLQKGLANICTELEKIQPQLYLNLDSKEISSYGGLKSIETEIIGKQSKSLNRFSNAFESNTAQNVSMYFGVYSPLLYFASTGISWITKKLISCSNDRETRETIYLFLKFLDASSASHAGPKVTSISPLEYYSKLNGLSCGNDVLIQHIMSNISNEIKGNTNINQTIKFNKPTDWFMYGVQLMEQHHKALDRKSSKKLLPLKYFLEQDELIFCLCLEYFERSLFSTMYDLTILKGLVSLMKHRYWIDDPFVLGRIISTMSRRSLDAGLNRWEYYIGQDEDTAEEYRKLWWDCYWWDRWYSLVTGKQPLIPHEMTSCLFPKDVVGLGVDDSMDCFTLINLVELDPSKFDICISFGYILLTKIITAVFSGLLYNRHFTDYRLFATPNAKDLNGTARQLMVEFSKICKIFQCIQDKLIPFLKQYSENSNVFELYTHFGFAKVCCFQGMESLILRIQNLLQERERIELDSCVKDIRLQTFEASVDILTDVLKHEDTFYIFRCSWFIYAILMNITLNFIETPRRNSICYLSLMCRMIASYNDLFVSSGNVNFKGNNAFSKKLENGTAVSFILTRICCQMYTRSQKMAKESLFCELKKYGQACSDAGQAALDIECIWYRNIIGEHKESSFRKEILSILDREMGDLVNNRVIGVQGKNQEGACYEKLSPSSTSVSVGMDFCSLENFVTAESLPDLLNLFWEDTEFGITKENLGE
# Assay: PBM E-score (8-mer binding enrichment) (E-score (-0.5 to 0.5)); higher = stronger / more preferred TF binding
# Details: protein concentration: 100 nM; construct: GST-full length
# Method in brief: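 Universal all-10-mer Agilent arrays, double-stranded by primer extension on fresh or once-stripped slides, were probed with about 100-200 nM GST-tagged yeast transcription factors made by PURExpress. Fluorescent anti-GST detected bound protein, and masliner normalised the scans. E-scores from the Universal PBM Analysis Suite were given to each ungapped eight-base word pooled with its reverse complement.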
row,Sequence,PBM E-score
1,GGGCTAAC,-0.0996
2,AACTCATC,0.122
3,CGGCGTGC,0.0195
4,AACGGAAG,0.179
5,CCGTTCAA,0.197
6,GTAATCCA,0.0517
7,AGAATCAA,-0.00582
8,ACTCCATG,-0.196
9,CCGAAACC,0.0844
10,CACGCTAG,-0.189
11,AACACTGA,0.159
12,GCAGAGCC,0.0652
13,CTATTGCC,-0.131
14,ATTTAGCA,0.0123
15,TAGCAGAA,0.0545
16,AGGATGAG,-0.176
17,TTCGAAAA,0.185
18,ACGTGGAA,-0.0515
19,AGGGAGAC,-0.0969
20,CCTCTGGC,-0.0934
21,ATACTCCC,0.059
22,AAGTAGTA,0.0145

row,Sequence,PBM E-score
1,CGCGAATC,0.0279
2,ACCAAGAA,0.245
3,GTGCTACA,-0.353
4,GGATCCCC,-0.0124
5,CATCTGCA,-0.0527
6,CTTGGCCC,-0.367
7,GTTGCCCA,-0.0158
8,AGCTTGTG,-0.0907
9,AACTGTAG,-0.0186
10,AAGTATCC,0.0522
11,CGGACACG,0.233
12,AAATACAA,0.196
13,CGGGGGTC,-0.184
14,CACTTCGC,-0.178
15,GCCTGTAC,0.092
16,CCGGCTCG,0.339
17,CGACGAGA,-0.03
18,CATGAAAA,0.208
19,GGGAACCC,-0.0204
20,CTATGTTC,-0.0669
21,AACAGAGA,0.0223
22,ATGGGGCC,-0.383

row,Sequence,PBM E-score
1,CAATGAAG,0.023
2,AATAGTAT,0.22
3,CCATCAAC,-0.0312
4,GCCAGCGA,-0.0285
5,AGACCACT,-0.0965
6,AATAAGTC,-0.188
7,AACTTATT,0.202
8,AACGGTTA,0.0289
9,ACACTAGC,-0.101
10,GAGTGGGC,-0.21
11,AATTCTGC,0.128
12,AAGCGGCG,0.196
13,TACATCAA,0.00178
14,AGATTTGG,-0.213
15,CCGACTCG,0.0655
16,CACAACCA,0.142
17,CGATTACC,0.0428
18,AGGCTAAG,-0.197
19,CTTCGCTA,0.0075
20,AGACAAAT,0.0326
21,TCAGAGAA,-0.119
22,ACCGTATC,0.11

# Looked up above:
# PBM E-score, ACGTGGAA is entered as -0.0515
# PBM E-score, GTAATCCA is entered as 0.0517
# PBM E-score, AATAGTAT is entered as 0.22
# PBM E-score, CGATTACC is entered as 0.0428
# PBM E-score, GTTGCCCA is entered as -0.0158

# Additional results follow:

row,Sequence,PBM E-score
1,CATATAAG,0.0407
2,AGAGGATG,-0.121
3,AACACAGG,-0.224
4,ACCTCACG,-0.00421
5,GGTATCGA,-0.0146
6,CTAATGCC,-0.0432
7,CGTGAACC,-0.0513
8,AGTTCGAA,0.202
9,CTTCGGTA,0.235
10,GCCTCTTA,-0.0286
11,CACTGACC,-0.0388
12,GTAACAAA,0.193
13,CTCTCAAC,-0.0176
14,GAGCTACC,-0.133
15,GCTGTGCC,-0.0243
16,CCAATAAG,-0.0102
17,TGCCCGAA,0.0801
18,GAGAAGCC,0.023
19,ACGCCTTA,-0.0515
20,GTATCCGA,0.304
